Measurements as given in patent US20210138012A1, “COMPOSITION FOR PREVENTING, AMELIORATING, OR TREATING RESPIRATORY DISEASE COMPRISING SIRAITIA GROSVENORII EXTRACT AS EFFECTIVE COMPONENT” (KOREA INSTITUTE OF ORIENTAL MEDICINE, priority 2018, published 2021).
At least one structure is not confirmed: it was looked up by name or label, or the drawing left a doubt.

Legend:
RANTES = experiment: Inhibition of RANTES secretion in TNF-α-treated BEAS-2B cells (ELISA); type: cell-based, human; conditions: in words
Procedure: (§1) BEAS-2B cells (ATCC, USA), which are human bronchial epithelial cells, were cultured in Dulbecco's modified eagle medium (DMEM) added with fetal bovine serum (FBS) and penicillin-streptomycin (PS). BEAS-2B cells were cultured again for 18 hours in a 96-well plate (5×10^4 cells/well) containing DMEM 10% medium. The medium was subsequently removed and replaced with serum-free DMEM.
After that, to measure the secretion amount of RANTES, the cells were simultaneously treated with a test sample and TNF-α (10 ng/ml) and cultured for 24 hours. Secretion amount of RANTES present in cell supernatant was measured by using ELISA kit (R&D systems, USA) according to the manufacturer's protocol. As a positive control group, 0.1 μM dexamethasone was used.

TARC = experiment: Inhibition of TARC secretion in TNF-α + IFN-γ + IL-4-treated BEAS-2B cells (ELISA); type: cell-based, human; conditions: in words
Procedure: as §1
Meanwhile, to measure the secretion amount of TARC, BEAS-2B cells were simultaneously treated with TNF-α (50 ng/ml), IFN-γ (10 ng/ml), and IL-4 (50 ng/ml), and, after culture for 24 hours, the measurement was made by using ELISA kit (R&D systems, USA).

[1] = tested on: IL-13, TARC, TNF-α, MUC5AC, IL-17; experiment: Expression of proinflammatory factors in lung tissues (real-time PCR); type: in vivo, Balb/c mouse; conditions: 10 mg/kg montelukast; vs control group (OVA)
[2] = tested on: OVA-specific immunoglobulin E; experiment: OVA-specific immunoglobulin E in blood serum (ELISA); type: in vivo, Balb/c mouse; conditions: 10 mg/kg montelukast; vs control group (OVA)
[3] = tested on: inflammatory cells in BALF; experiment: Inflammatory cells and eosinophils in BALF of animal asthma model; type: in vivo, Balb/c mouse; conditions: 10 mg/kg montelukast; vs control group (OVA)

SMILES | rate of inhibiting RANTES secretion compared to the control group (RANTES) | inhibition rate on TARC secretion compared to the control group (TARC) | proinflammatory factors (IL-13, TARC, TNF-α, MUC5AC, IL-17) in lung tissues [1] | level of ovalbumin-specific IgE in blood serum [2] | number of inflammatory cells and eosinophils in BALF [3]
C[C@@H]1C[C@H]2[C@@H]3CCC4=CC(=O)C=C[C@]4(C)[C@@]3(F)[C@@H](O)C[C@]2(C)[C@@]1(O)C(=O)CO [positive control group, dexamethasone] | higher with statistical significance compared to the control group | a statistically significant increase |  |  | 
CC(C)(O)c1ccccc1CC[C@@H](SCC1(CC(=O)O)CC1)c1cccc(/C=C/c2ccc3ccc(Cl)cc3n2)c1 [Montelukast, montelukast] |  |  | have decreased with statistical significance | has decreased with statistical significance | decreased with statistical significance
